According to publication PMC3679108, “A Novel Glucagon-Related Peptide (GCRP) and Its Receptor GCRPR Account for Coevolution of Their Family Members in Vertebrates” (PLoS ONE, 2013):
No constants are given. Whether binding was seen depends on the method and setting. Binding calls can cover weak binding; strength is not graded here.

Assays:
Assay in all cases: radioligand binding; competitive displacement on HEK293T cells transfected with GCRPR (300 ng DNA/well, 12-well plates); 100,000 cpm 125I-chGCRP without or with various concentrations of cold peptides, 1 h, binding buffer (serum-free DMEM with 0.1% BSA, pH 7.4); IC50 by nonlinear regression; only the binder purified
[1] = biological target: Xenopus GCRP receptor (Xenopus)
[2] = biological target: chicken GCRP receptor (chicken)
[3] = biological target: medaka GCRP receptor (medaka)

binding [1]: binds
binding [2]: binds
binding [3]: binds
B1: 125I-chGCRP (peptide)
peptide: HSEGTFTSDFTRYLDKMKAKDFVHWLINT
modifications: 125I (radioiodinated by the chloramine-T method)
